Earlier results as cited in PMC9289666, “Highly Parallelized, Multicolor Optogenetic Recordings of Cellular Activity for Therapeutic Discovery Applications in Ion Channels and Disease-Associated Excitable Cells” (Frontiers in Molecular Neuroscience, 2022).

Tested on: Nav1.5
Conditions: read-out: Nav1.5 Ionworks (IC50); automated patch clamp, literature reported; ref Harmer et al., 2011; cited from earlier work

CN(C)CCOC(c1ccccc1)c1ccccc1 [Diphenhydramine]
IC50: 16.4 µM

CCCNCC(O)COc1ccccc1C(=O)CCc1ccccc1 (centres unmarked) [Propafenone]
IC50: 1.2 µM
